Measurements reported in patent publication US20140220596A1 (MEDICINAL BIOCONVERGENCE RESEARCH CENTER, published 2014).
These are yes or no findings as the source states them, for the method shown. Some binding calls cover weakened binding; strength is not graded here. Where a sequence is shown, tags or fusion partners need not be part of it.

Target: T1, Fc-fused soluble cadherin-6 (extracellular domain of CDH6 fused to the Fc fragment of human IgG1) (human) (UniProt P55285)
T1 sequence: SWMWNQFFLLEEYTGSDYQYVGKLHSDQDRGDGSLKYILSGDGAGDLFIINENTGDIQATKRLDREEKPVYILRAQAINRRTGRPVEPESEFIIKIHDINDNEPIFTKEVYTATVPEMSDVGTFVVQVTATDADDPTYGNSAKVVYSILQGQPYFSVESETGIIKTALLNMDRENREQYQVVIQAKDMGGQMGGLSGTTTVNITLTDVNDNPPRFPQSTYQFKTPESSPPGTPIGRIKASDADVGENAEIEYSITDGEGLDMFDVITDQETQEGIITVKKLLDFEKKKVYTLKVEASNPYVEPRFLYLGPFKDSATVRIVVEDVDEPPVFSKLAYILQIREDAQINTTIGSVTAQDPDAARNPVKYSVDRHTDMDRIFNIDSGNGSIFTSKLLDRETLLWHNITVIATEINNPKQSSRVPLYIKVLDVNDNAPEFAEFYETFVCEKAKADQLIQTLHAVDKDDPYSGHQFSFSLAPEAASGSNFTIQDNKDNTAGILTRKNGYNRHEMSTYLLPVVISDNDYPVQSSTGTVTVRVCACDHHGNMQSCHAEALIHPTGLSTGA
Test: ELISA of GST-fused GRS proteins with CDH6 (format not described further), normalized OD value

B1: Full (enzyme, not shown: a dimerising Fc or GST; large carriers; small tags and cut ends)
chain: MDGAGAEEVLAPLRLAVRQQGDLVRKLKEDKAPQVDVDKAVAELKARKRVLEAKELALQPKDDIVDRAKMEDTLKRRFFYDQAFAIYGGVSGLYDFGPVGCALKNNIIQTWRQHFIQEEQILEIDCTMLTPEPVLKTSGHVDKFADFMVKDVKNGECFRADHLLKAHLQKLMSDKKCSVEKKSEMESVLAQLDNYGQQELADLFVNYNVKSPITGNDLSPPVSFNLMFKTFIGPGGNMPGYLRPETAQGIFLNFKRLLEFNQGKLPFAAAQIGNSFRNEISPRSGLIRVREFTMAEIEHFVDPSEKDHPKFQNVADLHLYLYSAKAQVSGQSARKMRLGDAVEQGVINNTVLGYFIGRIYLYLTKVGISPDKLRFRQHMENEMAHYACDCWDAESKTSYGWIEIVGCADRSCYDLSCHARATKVPLVAEKPLKEPKTVNVVQFEPSKGAIGKAYKKDAKLVMEYLAICDECYITEMEMLLNEKGEFTIETEGKTFQLTKDMINVKRFQKTLYVEEVVPNVIEPSFGLGRIMYTVFEHTFHVREGDEQRTFFSFPAVVAPFKCSVLPLSQNQEFMPFVKELSEALTRHGVSHKVDDSSGSIGRRYARTDEIGVAFGVTIDFDTVNKTPHTATLRDRDSMRQIRAEISELPSIVQDLANGNITWADVEARYPLFEGQETGKKETIEE
binding: binds
